Test results: patent US8450270B2 (Indiana University Research and Technology Corporation, priority 2008, dated 2013)

Assay: general procedure: Boc solid-phase peptide synthesis; Boc Thr(OBzl)Pam resin; methoxybenzhydrylamine resin for C-terminal amides; HBTU (FastBoc single couplings); DEPBT for lactam analogs
Details: conjugation step, analytical HPLC, Zorbax C8, 214 nm; MALDI mass spectral analysis

Substance	final HPLC purity
Glucagon Cys^29 Mal-PEG-5K	greater than 95%
Glucagon Cys17 Mal-PEG-5K	approx. 90%
Glucagon Cys^24 Mal-PEG-20K	˜90%
